Reference: patent publication US20220356475

Chains of the proteins cited; added tags and fusions are not shown. Residues count along the entry.
UniProt P30530, 26-894: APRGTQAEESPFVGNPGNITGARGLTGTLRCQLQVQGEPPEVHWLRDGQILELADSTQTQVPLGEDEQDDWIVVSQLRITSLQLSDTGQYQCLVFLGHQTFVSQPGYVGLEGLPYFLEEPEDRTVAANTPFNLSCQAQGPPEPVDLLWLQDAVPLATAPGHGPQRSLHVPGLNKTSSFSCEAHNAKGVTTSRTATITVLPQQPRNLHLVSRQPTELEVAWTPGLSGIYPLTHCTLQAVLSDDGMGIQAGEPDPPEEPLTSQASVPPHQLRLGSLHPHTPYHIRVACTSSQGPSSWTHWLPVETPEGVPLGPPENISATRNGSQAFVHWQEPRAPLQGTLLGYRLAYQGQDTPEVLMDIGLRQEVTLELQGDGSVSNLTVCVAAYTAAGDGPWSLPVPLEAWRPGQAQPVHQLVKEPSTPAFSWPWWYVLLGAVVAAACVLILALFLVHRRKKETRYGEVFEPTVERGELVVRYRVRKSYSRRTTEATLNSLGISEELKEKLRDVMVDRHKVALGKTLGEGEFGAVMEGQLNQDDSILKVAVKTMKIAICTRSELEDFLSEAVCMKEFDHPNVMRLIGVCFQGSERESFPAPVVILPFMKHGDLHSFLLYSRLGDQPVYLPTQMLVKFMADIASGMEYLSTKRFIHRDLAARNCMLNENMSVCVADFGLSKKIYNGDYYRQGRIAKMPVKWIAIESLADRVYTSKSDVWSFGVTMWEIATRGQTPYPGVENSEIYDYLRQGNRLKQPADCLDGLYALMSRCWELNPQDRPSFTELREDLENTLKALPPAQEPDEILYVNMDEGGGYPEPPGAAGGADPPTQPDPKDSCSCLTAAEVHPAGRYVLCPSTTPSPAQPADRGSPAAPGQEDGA

Target: AXL receptor tyrosine kinase (UniProt P30530)
Assay: activity in cells
Conditions: in one embodiment pyrimidines 2'-F and/or purines 2'-OMe, protein on the cell surface

GGCGCUAGAACCUUCUAAGCGAAUACAUUACCGCGUACAUUCUAGAUAGCC / AGUCAGUGCAUCACAGAACUUUGUCUUU / AGGUGAAGUUCUGUUAUACACUCAGGCUGGCUAUCUAGAAUGUAC
functional effect of the aptamer (C12 alkyl linker between SEQ 6 and SEQ 2, no change in miR-148b levels in AXL+ cells, scrambled sequence stated unable to bind and activate AXL, dose not given here): not active

AUGAUCAAUCGCCUCAAUUCGACAGGAGGCUCACGUACAUUCUAGAUAGCC / AGUCAGUGCAUCACAGAACUUUGUCUUU / AGGUGAAGUUCUGUUAUACACUCAGGCUGGCUAUCUAGAAUGUAC
functional effect of the aptamer (C12 alkyl linker between SEQ 1 and SEQ 2, 400 nM, miR-148b raised in AXL+ cells but not in AXL- SKBR3 cells (qRT-PCR, 48 h), indirect evidence of binding): active

A negative result means that nothing was seen under these conditions.
